Measured values: PubChem BioAssay AID493014 (National Center for Advancing Translational Sciences (NCATS), 2011)
The other results are listed elsewhere or left out. Shown are side measurements of this screen, not its main read-out; they come without a call. The list favours compounds with an active or inconclusive main result. Potencies come from curve fits of mixed quality, noted in brackets.

Test: qHTS Assay to Find Inhibitors of Chronic Active B-Cell Receptor Signaling
Details: ABC-DLBCL IkBa-CBG/CBR reporter, luminescence ratio (green luciferase fused to IkBa over red control in TMD8 lymphoma cells), 4 h
Method in brief: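 TMD8 ABC-DLBCL cells carrying doxycycline-inducible green luciferase fused to IkappaBalpha plus unfused red luciferase were exposed to compounds (up to 46 uM) for 4 hrs at 37C. Activity came from the overlap-corrected green/red luminescence ratio.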

[1] = measured here: CBR red luminescence, cell number
[2] = measured here: IkBa-CBG green luminescence

| Compound | AC50 [1] | AC50 [2] |
| --- | --- | --- |
| COC(=O)CN(n1cnnc1)S(=O)(=O)c1ccccc1Cl | 2.06 µM [falling, single point] | – |
| Cc1ccc2c(c1)C1CCCC3C1N2CC(=O)N3Cc1ccccc1 (stereo unspecified) | 8.2 µM [falling, partial curve, poor fit] | 2.59 µM [rising, partial curve, poor fit] |
| Cc1ccc(NC(=O)c2ccc3c(c2)OCCO3)cc1 | 11.2 µM [falling, partial curve, poor fit] | – |
| COc1ccc(S(=O)(=O)N2Cc3ccccc3CC2C(=O)Nc2nccs2)cc1OC (stereo unspecified) | 1.84 µM [rising, partial curve, poor fit] | – |
| N#Cc1ccccc1CSc1nc2ccc(NC(=O)c3ccccc3C(=O)O)cc2s1 | 35.5 µM [falling, single point] | – |
| O=C(Nc1ccc(F)cc1)c1sc2cc(C(F)(F)F)cnc2c1-c1cccs1 | 20.6 µM [rising, single point] | – |
| Cc1cccc(Cn2c(N3CCN(c4ccccc4)CC3)nc3c2c(=O)n(C)c(=O)n3C)c1 | 6.31 µM [falling, single point] | – |
| CC/C=C/C(=O)N1CC2(CC(c3cccc(NC(=O)COc4ccc(Cl)cc4)c3)=NO2)C[C@H]1C(N)=O (stereo partly specified) | 31.6 µM [falling, single point] | – |
| Cc1ccccc1Nc1nc(-c2cccnc2)nc2ccccc12 | 14.1 µM [falling, single point] | – |
| COC(=O)C1=C(C)NC(C)=C(C(=O)OC(C)C)C1c1cccc2nonc12 (stereo unspecified) | 12.6 µM [falling, single point] | – |
| O=C(Nc1ccc(Cl)cc1)C1CCCN(C2=NS(=O)(=O)c3ccccc32)C1 (stereo unspecified) | 13 µM [rising, partial curve, poor fit] | – |
| CCCc1cc(=O)n2[nH]c(-c3ccc(OC)cc3)nc2n1 | 5.17 µM [falling, partial curve] | – |
| Cc1ccc(S(=O)(=O)N2C[C@@H]3[C@H]4CC[C@H](C4)[C@@H]3[C@@H](C)[C@@H]2c2ccn(Cc3ccccc3)c2)cc1 | 29.1 µM [falling, partial curve, poor fit] | – |
| COc1ccc(NC(=O)NCc2ccc3c(c2)OCO3)cc1OC | 11.2 µM [falling, single point] | – |
| Cc1cc(NC(=O)C(C)(C)C)no1 | 16.4 µM [rising, partial curve, poor fit] | – |
| Nc1nc(-c2ccc(-c3ccccc3)cc2)cs1 | 12.6 µM [falling, partial curve, poor fit] | – |
| CCOC(=O)C1CCN(S(=O)(=O)c2c[nH]c(=O)[nH]c2=O)CC1 | 20.6 µM [rising, partial curve, poor fit] | – |
| O=C(CNCc1ccc(F)cc1)Nc1ccccc1[N+](=O)[O-] | 0.224 µM [rising, full curve, poor fit] | – |
| COc1ccc(N2C(S)=C(C#N)C(=O)NC23CCCCC3)cc1 | – | 12.6 µM [falling, single point] |
| C/C(=N\Nc1ccc(Cl)c(C(=O)O)c1)c1ccc[nH]1 | 22.4 µM [falling, single point] | – |
| CCOC(=O)[C@H]1[C@H]2COc3ccc(Cl)cc3[C@@H]2N2C(=O)c3ccccc3NC(=O)[C@@]12C | 11.6 µM [falling, single point] | – |
| Cc1ccc(C(CC(=O)N2CCNCC2)c2ccccc2)c(O)c1C (stereo unspecified) | 0.501 µM [rising, full curve, poor fit] | – |

| Compound | AC50 [1] | AC50 [2] |
| --- | --- | --- |
| O=c1ccc(OCCOc2ccccc2)nn1-c1ccccc1 | 7.31 µM [rising, partial curve] | – |
| O=C(CN1C(=O)/C(=C\c2ccccc2F)SC1=S)Nc1nc2ccccc2s1 | 16.4 µM [falling, single point] | – |
| OC(COc1ccc(CNCCc2ccc(C(F)(F)F)cc2)cc1)CN1CCCCC1 (stereo unspecified) | 12.6 µM [falling, partial curve, poor fit] | – |
| CN(C)S(=O)(=O)c1cccc(-c2nn(-c3ccccc3)cc2/C=C(/C#N)C(=O)NCc2ccco2)c1 | 0.731 µM [rising, full curve, poor fit] | – |
| O=C(N/N=C/c1cccs1)c1ccccn1 | 12.6 µM [falling, partial curve] | – |
| O=C(c1cccnc1)N1CCN(c2ccc3ccccc3n2)CC1 | 11.2 µM [rising, partial curve, poor fit] | – |
| CS(=O)(=O)c1cnc2c(-c3ccsc3)cnn2c1N | 6.31 µM [rising, full curve] | 10 µM [falling, partial curve, poor fit] |
| CCCc1ccc(-c2cc(C(=O)N/N=C/c3ccc([N+](=O)[O-])o3)c3ccccc3n2)cc1 | 6.51 µM [rising, partial curve, poor fit] | – |
| CCOC(=O)C1CCCN(Cc2cc(Br)ccc2OC)C1 (stereo unspecified) | 32.6 µM [rising, single point] | – |
| CC(C)(C)[C@H](N)C(=O)N[C@H]1CCC2C3CC=C4C[C@@H](O)CC[C@]4(C)C3CC[C@@]21C (stereo partly specified) | – | 32.6 µM [rising, partial curve, poor fit] |
| CCN(CC(=O)Nc1cc(Cl)ccc1C)C(=O)CSCc1ccccc1 | 6.51 µM [rising, single point] | – |
| O=C(CCCl)Nc1nc2c(s1)CCc1ccccc1-2 | 0.251 µM [falling, full curve, poor fit] | – |
| OC(CNC1Cc2ccccc2C1)c1ccccc1 (stereo unspecified) | 1.78 µM [rising, full curve] | – |
| Cc1ccc(NC(=O)CCn2cccc2)cc1F | 4.11 µM [rising, full curve, poor fit] | – |
| COc1cccc(Nc2nc(-c3sc(N)nc3C)cs2)c1 | 8.2 µM [falling, partial curve, poor fit] | – |
| COc1cc(/C=C(\C#N)c2nc3ccccc3[nH]2)cc(OC)c1O | 4.47 µM [falling, partial curve, poor fit] | – |
| Cc1cc(C)cc(NC(=O)CSc2ccccc2)c1 | 0.501 µM [rising, full curve, poor fit] | – |
| Cc1cc(NC(=O)CSc2ccccn2)no1 | 11.2 µM [rising, partial curve, poor fit] | – |
| COc1ccc2c(-c3ccc(OCCN4CCOCC4)cc3)c(-c3ccccc3OC)sc2c1 | – | 16.4 µM [falling, partial curve, poor fit] |
| OCc1nn2c(c1Br)NC(c1ccccc1)CC2C(F)(F)F (stereo unspecified) | 18.4 µM [rising, partial curve, poor fit] | – |
| c1ccc(-c2noc(-c3cccc4ccccc34)n2)cc1 | 32.6 µM [falling, single point] | – |
| CC(=O)Oc1ccc(-c2csc(Nc3cccc(C)n3)n2)cc1 | 4.47 µM [falling, partial curve] | – |

| Compound | AC50 [1] | AC50 [2] |
| --- | --- | --- |
| CC(C)CCNC(=O)c1onc(CSc2ccc(F)c(F)c2)c1C(=O)NCCC(C)C | 8.91 µM [rising, partial curve, poor fit] | – |
| CCOc1ccc(C(=O)Nc2ccc3[nH]ncc3c2)cc1 | 0.398 µM [falling, full curve, poor fit] | – |
| OC(COc1ccc2cc(Br)ccc2c1)CN1CCCC1 (stereo unspecified) | 13 µM [falling, partial curve] | – |
| Nc1ccc(-c2nc3ccc(-c4nc5ccccc5o4)cc3[nH]2)cc1 | 0.112 µM [rising, full curve, poor fit] | – |
| CN(C)CCCNC(=S)Nc1ccc(-c2ccccc2)cc1 | 35.5 µM [falling, single point] | – |
| CN1CCN(C(=S)c2ccc(-c3cccc(Cl)c3Cl)o2)CC1 | 2.31 µM [rising, partial curve] | – |
| Oc1c(C=NCc2ccccc2)sc2ccccc12 | 12.6 µM [falling, partial curve] | – |
| COc1ccc(CCNC(=O)CSc2nnc3ccc(-c4ccccn4)nn23)cc1 | 1.64 µM [falling, full curve, poor fit] | – |
| Clc1cccc(CN2CCN(c3nc4nonc4nc3NC3CC3)CC2)c1 | 17.8 µM [falling, partial curve, poor fit] | – |
| O=C(Cc1ccccc1)NC(Nc1cccc2ccccc12)C(Cl)(Cl)Cl (stereo unspecified) | 0.501 µM [falling, full curve] | – |
| Cc1ccc2c(c1)NC(=O)C(CC(=O)Nc1ccc(Br)c(C)c1)O2 (stereo unspecified) | 3.98 µM [rising, partial curve] | – |
| COC(=O)c1c(NC(=O)CSc2nc3nc(C)cc(C)n3n2)sc(C)c1C | 29.1 µM [rising, partial curve, poor fit] | – |
| CSc1ccccc1OCc1cc(C(=O)NC2CCOC(C)(C)C2)no1 (stereo unspecified) | 35.5 µM [falling, single point] | – |
| NC(=O)CSc1nnc2sc3ccccc3n12 | 15.8 µM [rising, partial curve, poor fit] | – |
| COc1ccccc1C(=O)NNC(=O)c1ccccc1[N+](=O)[O-] | 5.17 µM [falling, partial curve] | – |
| Cc1ccc(/C=N/Nc2cccc(C(=O)O)c2)s1 | 0.058 µM [falling, full curve] | – |
| C/C(=C1/SC(N2CC(C)OC(C)C2)=NC1=O)c1ccccc1 (stereo unspecified) | 1.03 µM [rising, full curve, poor fit] | – |
| CCN(CC(=O)Nc1c(F)cccc1F)C(=O)/C=C/c1ccc2c(c1)OCO2 | 2.06 µM [falling, partial curve] | – |
| Cc1ccc2cc(C=O)c(N3CCOCC3)nc2c1C | 35.5 µM [rising, single point] | – |
| COc1cc2c(cc1NC(=O)CSc1nc3ccccc3[nH]1)oc1ccccc12 | 13 µM [falling, single point] | – |
